In PubChem BioAssay AID1508600 (Functional Genomics Laboratory (NCATS/FGL), 2020):
Hit rate of the full screen: of about 53,000 sequences, about 3,700 (7%) were called active.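 Rule for the calls: active = gene knockdowns whose robust z-score for IL-1 alpha signal is at least 2 or at most -2, so actives lie on both sides; inactive = the rest.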 Some of the results follow.

Assay: Components of the Cytosolic LPS Sensing Pathway: Gene Identification via Genome-wide siRNA Screen;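 note: robust z of the log signal after scaling to non-targeting control siRNA wells of the plate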
Conditions: RAW264.7 macrophages, IL-1a HTRF, actives lie on both sides, screened at 100 nM (by protocol), cells primed 5 h with Pam3CSK4 first
In short: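 Mouse macrophage line RAW264.7 is transfected with siRNA (100 nM final), grown 48h, primed with TLR ligand Pam3CSK4 5 h and given intracellular LipidA 24 h. IL-1a in supernatant is read by HTRF and viability by luminescence.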

z-score, inactive:
GCCUUUACCCAAAUUAUCATT against Defb4 0.567
CGUUCUACAACAAAUGGCUTT against Slc35c2 -1.31
GGAGGAAUCUUGGGUCUGATT against Gas2l2 0.0842
GGAAAUGAAAAAGUUCUGGTT against Sppl2a 0.583
GCACGUACCAGUAUCCAGATT against Dnase1l2 0.613
CGAUUCCAACAAGAAAGUGTT against Togaram2 0.649
GCUCUAGAUGUCAACCUGATT against Larp1b 0.683
GGCCACAGAGCCAAAGAUUTT against Cdca7 0.808
GGAGAUGACUCUUUCUGUATT against Olfr301 0.675
GGAUCUCUGGGAAAUCUGCTT against Tap2 -0.894
GCAGCUGAUCACUGGAAAGTT against Tuba3a -0.357
GGAACCUACCUUUGACCCATT against Tbc1d17 -0.283
GGUUAUUCUUCUGGUGGUGTT against Olfr1234 0.494
GGUUCUGGAAGUCUAAGAATT against Zmynd11 1.2
GGCUGUGAACAAAUUUGUATT against Megf6 -0.109
GCAGCUAGUCUUUUAGGUATT against Nasp 1.58
GGCAAUACGUAACAUGCCATT against Slc6a4 -0.148
GGGUGGGUUUGAGGUGUCUTT against Set 1.51
GGUCUUCGACACCAUUAACTT against Wipi2 0.947
GGCUUAAAAUAAAAGUGCCTT against Nans 0.175
CCCAGCACAAGUGUAAGAUTT against Fzd10 0.184
GGUACUACAAGAGAAAAGATT against Hdhd2 -0.958
GCUGAAAAACAAGACUUCGTT against Gabrg1 0.993
GGCUCACAUCUCCUUACAUTT against Klrg1 0.979
GGUGAUGAGCAGAAUCCAGTT against Ercc6l 0.105
CCACGAGCAUUGAAAACCUTT against Dmbx1 -1.31
GGGUCAUUGCUUAGAAACATT against Tcta -1.82
GGACAAGGCCACUUAAAUCTT against Hoxc8 -0.0614
GGUGAAAUACGAUUAUGAUTT against Galnt12 -1.39

Looked up one by one from above:
z-score, inactive:
GGCCACAGAGCCAAAGAUUTT against Cdca7 0.808
GCAGCUGAUCACUGGAAAGTT against Tuba3a -0.357
